PubChem BioAssay AID602196 | INSERM, 2012

Test: 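Modifiers of cisplatin sensitivity in A549 cells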
Cell system: human A549 lung cancer cells
Reagent: siRNA pair against human genes
Duration: 48 h transfection before cisplatin; time from cisplatin to read-out not stated
Conditions: cisplatin at a dose killing half of control-siRNA cells; exact dose and duration not given
Detection: 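Shift in cisplatin death relative to control siRNA, from -50 (all cells die) to +50 (no cells die); siRNAs harmful on their own scored 0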
Reading the numbers: two-siRNA summed score (-2 to +2): higher = both siRNAs protect from cisplatin killing; -2 means both sensitise; mean protection from cisplatin (shift in death) and protection from cisplatin (shift in death), siRNA C and protection from cisplatin (shift in death), siRNA D: higher = protection from cisplatin killing
Active means: 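siRNAs harmful alone (LDH or WST-1) get 0; others get +1 for less and -1 for more cisplatin killing; genes are active when the two siRNAs give the same sign, summing to ±2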
Meaning of the calls: active = both siRNAs shift cisplatin killing the same way; inactive = no consistent shift, or siRNA harmful alone
In all, the deposit lists about 23,000 reagents; below is an unselected part. Of all reagents, 455 (2%) were called active. 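Active includes both protection and sensitisation; some change values fall well beyond the stated -50 to +50 range.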 The record does not give: the amount of reagent.

gene symbol,two-siRNA summed score (-2 to +2),mean protection from cisplatin (shift in death) (%),"protection from cisplatin (shift in death), siRNA C (%)","protection from cisplatin (shift in death), siRNA D (%)",activity call
ZBTB1,0,9.7,10.2,9.1,inactive
KCMF1,0,-6.1,-5.4,-6.8,inactive
LOC146712,0,-1.6,8.7,-11.8,inactive
ZNF416,0,-10.4,-10.7,-10.1,inactive
ACOT7,0,15.2,13.1,17.4,inactive
PCGF1,-1,-13.1,-22.8,-3.4,inactive
HLA-DQA2,0,4.5,7.7,1.3,inactive
ZNF652,0,7.1,7.1,7.2,inactive
TSPAN6,0,11.1,6.7,15.5,inactive
RBPJL,-1,-22.2,-14.3,-30.2,inactive
LOC442255,0,3.5,-6.8,13.8,inactive
FLJ40162,0,23.6,16.8,30.5,inactive
LOC440543,1,5.3,-3,13.6,inactive
LOC441057,1,7.7,19.3,-3.9,inactive
CPA3,0,4.8,-1.2,10.9,inactive
PRKAG2,0,9.1,7.8,10.4,inactive
LOC441755,0,6.8,5.5,8.2,inactive
LOC389048,1,15.6,12.8,18.5,inactive
KIAA0657,0,20.1,14.8,25.3,inactive
SKIC8,0,-4.6,-0.5,-8.8,inactive
LRP6,-1,-21.2,5.1,-47.5,inactive
DZIP1L,-1,-9.3,3.9,-22.5,inactive
ENDOG,0,-4.1,-12.3,4.1,inactive
LOC441082,0,0.6,-0.1,1.3,inactive

Part of the list above, limited to “two-siRNA summed score (-2 to +2)”:
LOC389048: 1
KIAA0657: 0
SKIC8: 0
LRP6: -1
DZIP1L: -1
ENDOG: 0
LOC441082: 0

Continued.
gene symbol,two-siRNA summed score (-2 to +2),mean protection from cisplatin (shift in death) (%),"protection from cisplatin (shift in death), siRNA C (%)","protection from cisplatin (shift in death), siRNA D (%)",activity call
SEC24A,0,1.9,-3,6.8,inactive
TRIM53CP,0,9.7,7.2,12.3,inactive
PRIM2,0,11.4,9.8,13.1,inactive
MAEL,0,7.3,2.2,12.5,inactive
LOC440755,0,15.7,22.4,9.1,inactive
SOCS2,0,-5.9,-9,-2.8,inactive
GPR32,-1,-11.6,-4.1,-19.1,inactive
RHBDL1,0,5.3,-1.5,12.2,inactive
SKAP2,0,-9.8,-4.3,-15.4,inactive
VSX2,1,17.7,18.1,17.3,inactive
AP1B1,0,0.3,-5.5,6,inactive
MCMBP,0,8.2,17,-0.5,inactive
DELEC1,0,-9.2,-10.3,-8,inactive
SMNDC1,0,2.7,4.3,1.2,inactive
SCAND1,0,6.1,8,4.2,inactive
NMNAT3,1,5.8,10,1.6,inactive
ENAM,2,21.1,15.8,26.3,active
TMEM161B,-2,-15.5,-15.9,-15.2,active
ZNF333,0,17,11.6,22.3,inactive
SPATA9,1,7.2,-0.1,14.5,inactive
RMC1,0,1.1,1.9,0.4,inactive
LOC388655,0,7.6,0.7,14.5,inactive
MYRF,0,-9.2,-12.9,-5.4,inactive
PRDM4,0,5.6,17.5,-6.3,inactive
IL23A,0,-14.3,-18,-10.6,inactive
LOC389203,0,4.5,14.1,-5,inactive
LOC150946,1,18.9,13.8,24,inactive
CA10,0,12.2,14.5,9.8,inactive
SH2D1A,0,1.8,7.6,-4,inactive
CDC42BPA,1,18.1,32.6,3.6,inactive
APOOL,1,15.9,6.4,25.4,inactive
LRG1,0,5.5,14.3,-3.4,inactive
IFT70B,0,-1.1,11.3,-13.5,inactive
